Source: PubChem BioAssay AID540256 (National Center for Advancing Translational Sciences (NCATS), 2011)
Hit rate of the full screen: of about 300,000 compounds, about 3,700 (1.2%) were called active. Inconclusive results, whose numbers are uncertain, are shown with a selection of clear calls. Calls follow the shape of the full dose curve; tested in HEK293 cells. Where the call is inconclusive, the potency comes from a doubtful curve fit.

test: qHTS for Inhibitors of binding or entry into cells for Lassa Virus; conditions: Lassa virus pseudotype entry inhibition, cell reporter; series mostly up to 37.9 µM; also: nearly all actives have a fitted effect of over 50% in size
Potency is read from the fitted curve at half-maximal effect.

SMILES	Potency
CCOC(=O)C1(Cc2ccccc2)CCCCCC1=O (stereo not drawn)	inactive
CCn1ccnc1CN(C)Cc1cn(-c2ccccc2)nc1-c1ccc(OC)cc1F	inconclusive: 35.5 µM [inhibitor, single point]
O=C(c1ccccc1)c1cccn1CC(=O)N1CCN(c2ccc(F)cc2)CC1	inconclusive: 35.5 µM [inhibitor, single point]
CCN(CC)C(=O)C1=C(C)NC(=S)NC1c1cn(-c2ccccc2)nc1-c1ccc(Cl)cc1 (stereo not drawn)	inactive
COc1ccc2nc(NC(=O)C34CC5CC(CC(NC(C)=O)(C5)C3)C4)sc2c1	inconclusive: 10 µM [inhibitor, partial curve, poor fit]
CCSc1nnc(NC(=O)C2CC(=O)N(Cc3ccc(C)cc3)C2)s1 (stereo not drawn)	inactive
COc1ccc(C(=O)Nc2ccccc2-c2nnn(CC(N)=O)n2)cc1	inactive
Cc1ccc(C)c(N2CCN(S(=O)(=O)c3ccc(-c4cc(C(F)(F)F)on4)s3)CC2)c1	inconclusive: 7.08 µM [activator, partial curve]
Cn1c(=O)c(-c2ccccc2)nn2c3ccccc3nc12	inactive
CN(C)c1ccc(/C=N/NC(=O)c2nonc2N)cc1[N+](=O)[O-]	inactive
Cc1ccc(OCCN2C(=O)c3ccccc3C2=O)cc1	inactive
Cn1c(=O)c2c(O)cc(=O)[nH]c2n(-c2ccccc2)c1=O	inconclusive: 4.61 µM [activator, partial curve, poor fit]
CCOC(=O)c1cc(-c2ccc(OC)cc2)n(CCC(=O)NCc2ccccc2OC)c1C	inconclusive: 10 µM [inhibitor, partial curve, poor fit]
CCC(C)NC(=O)CSc1nc2ccsc2c(=O)n1-c1ccc(OC)cc1 (stereo not drawn)	inactive
COc1ccccc1C(=O)Nc1nnc(CCc2ccccc2)s1	inconclusive: 35.5 µM [inhibitor, single point]
Cn1c(=O)c2cc(C(=O)N3CCN(c4cccc(C(F)(F)F)c4)CC3)sc2c2ccccc21	inactive
CCc1ccc(N(CC(=O)NCCc2ccccc2)C(=O)CCC(=O)Nc2ccccn2)cc1	inconclusive: 10.3 µM [inhibitor, partial curve]
O=[N+]([O-])c1cccc(Cl)c1N1CCOCC1	inactive
COc1ccc(S(=O)(=O)NCC(c2cccnc2)N2CCN(c3ccccc3OC)CC2)cc1C (stereo not drawn)	inconclusive: 11.2 µM [inhibitor, partial curve, poor fit]
O=C1C2C3C=CC(C2C(=O)N1C1CCCCC1)C1C2C(=O)N(C4CCCCC4)C(=O)C2C31 (stereo not drawn)	inconclusive: 1.26 µM [activator, single point]
CN(c1ccccc1)S(=O)(=O)c1ccc2ccccc2c1	inconclusive: 35.5 µM [inhibitor, single point]
O=C1CN(CC(=O)N2CCCCC2)c2ccccc2O1	inactive
Cc1ccc(NC(=O)c2cc3c(s2)CCCC3)cc1	inconclusive: 12.6 µM [inhibitor, partial curve, poor fit]

SMILES	Potency
O=C(Nc1nnc(Cc2ccccc2)s1)c1cccs1	inactive
COc1ccc(S(=O)(=O)Nc2ccccc2C(=O)Nc2nc(-c3ccc(F)cc3)cs2)cc1OC	active: 11.2 µM
CCOc1cccc(CN2CCCC(C(=O)c3cc(Cl)ccc3OC)C2)c1O (stereo not drawn)	inconclusive: 28.2 µM [inhibitor, partial curve, poor fit]
Cc1cc(Cl)c2oc(C(=O)N(CCO)Cc3ccccc3)c(C)c2c1	inactive
COc1cccc(C(=O)Nc2cccc(NC(C)=O)c2)c1	inactive
O=C(NCCc1ccc(Cl)cc1)C(=O)NCC(c1ccc2c(c1)OCO2)N1CCOCC1 (stereo not drawn)	inconclusive: 3.16 µM [inhibitor, single point]
O=C(CSc1nc2c(c(=O)n1-c1ccc(Cl)cc1)SCC2)NCc1ccco1	inactive
CCCCN(C(=O)CCC(=O)Nc1cc(C)on1)C(C(=O)NC(C)(C)C)c1ccccc1Cl (stereo not drawn)	inactive
Cc1[nH]c(=O)[nH]c(=O)c1NC(=O)CSc1ncccc1-c1nc2ccccc2[nH]1	inactive
Cc1cccc2sc(N(CCCN(C)C)C(=O)c3ccc(S(=O)(=O)N4CCc5ccccc5C4)cc3)nc12	inconclusive: 15.8 µM [inhibitor, partial curve, poor fit]
Nc1ccc(-c2nc3ccc(C(=O)O)cc3s2)cc1	active: 0.461 µM
C=CCOC(=O)N[C@H](c1cccc(OC)c1)[C@H](C)C=CCC(=O)OC	inconclusive: 4.73 µM [inhibitor, partial curve, poor fit]
Cc1c(Cl)cccc1NC(=O)C1CCCN(C(=O)c2cnn(-c3ccccc3)c2-n2cccc2)C1 (stereo not drawn)	inconclusive: 10 µM [inhibitor, partial curve]
CCOC(=O)c1c(NC(=O)CN2C(=O)NC3(CCCCC3C)C2=O)sc(C)c1CC (stereo not drawn)	inconclusive: 7.08 µM [inhibitor, partial curve]
O=C(CN1C(=O)COc2ccc(S(=O)(=O)N3CCOCC3)cc21)Nc1ccc(F)c(Cl)c1	inactive
C=C[C@@H](C)[C@@H]1C[C@@H](CCCCCOCc2ccc(OC)cc2)OP(=O)(OC)O1 (stereo partly drawn)	inconclusive: 15.8 µM [inhibitor, partial curve, poor fit]
CCOc1ccc(C(=O)Nc2cccc(NC(=O)c3cccs3)c2)cc1[N+](=O)[O-]	inactive
COc1ccccc1NC(=S)N(CCN1CCOCC1)Cc1ccccc1F	inconclusive: 5.62 µM [activator, partial curve, poor fit]
CCCCNC(=O)CNC(=S)N(CCCN1CCOCC1)Cc1cccs1	inactive
Cc1ccc(NC(=O)C2CCN(S(=O)(=O)c3cccc4nonc34)CC2)c(Cl)c1	inconclusive: 35.5 µM [activator, single point]
COc1ccc(C=CC(=O)c2c(OC)cc(OC)c(OC)c2O)cc1	inactive
Cc1ccc(C)c2[nH]c(=O)c(CN(Cc3ccco3)C(=O)Nc3ccccc3)cc12	inconclusive: 17.8 µM [inhibitor, single point]
CCOc1ccccc1C(=O)Nc1cc(OC)ccc1OC	inactive

Structural class, the entries above containing a nitro group on carbon
SMILES	Potency
CN(C)c1ccc(/C=N/NC(=O)c2nonc2N)cc1[N+](=O)[O-]	inactive
O=[N+]([O-])c1cccc(Cl)c1N1CCOCC1	inactive
CCOc1ccc(C(=O)Nc2cccc(NC(=O)c3cccs3)c2)cc1[N+](=O)[O-]	inactive

Following part.

SMILES	Potency
CC(=O)c1ccc(S(=O)(=O)N2CCN(C(=O)c3ccc(COc4ccccc4)o3)CC2)cc1	inconclusive: 14.1 µM [inhibitor, partial curve, poor fit]
CCc1ccccc1NC(=O)CSc1nc(C)c(C(=O)Nc2ccccc2)c(-c2ccc(Cl)cc2)c1C#N	inconclusive: 35.5 µM [inhibitor, partial curve, poor fit]
COC(=O)CN1C(c2cccc(Cl)c2)=Nc2ccc(Cl)cc2C1c1ccccc1 (stereo not drawn)	inactive
COc1cccc(CC(=O)Nc2nc3ccccc3[nH]2)c1	inconclusive: 35.5 µM [activator, partial curve, poor fit]
CCOC(=O)N1CCN(S(=O)(=O)c2ccc(C(=O)NNc3nc4c(C)cccc4s3)cc2)CC1	inconclusive: 32.6 µM [inhibitor, single point]
O=C(CN(Cc1cccs1)S(=O)(=O)c1ccc(S(=O)(=O)NC2CCCCC2)cc1)Nc1ccccc1	inconclusive: 23.1 µM [inhibitor, single point]
O=C(CSC1=Nc2ccccc2C2=NC(Cc3c[nH]c4ccccc34)C(=O)N12)NC1CCCCC1 (stereo not drawn)	inconclusive: 6.51 µM [inhibitor, partial curve, poor fit]
CCOc1ccc(NC(=O)c2ccc3c(c2)nnn3C2CCCC2)cc1	inactive
CCN(CC)S(=O)(=O)c1ccc(NC(=O)c2ccc3c(=O)n4c(nc3c2)CCCCC4)cc1	inconclusive: 22.4 µM [inhibitor, single point]
CCOc1ccccc1N(C)C(=O)c1cc(S(=O)(=O)NCCc2ccc(Cl)cc2)ccc1F	inconclusive: 35.5 µM [inhibitor, single point]
CCCC(=O)NC(c1ccco1)c1cc([N+](=O)[O-])c2cccnc2c1O (stereo not drawn)	inconclusive: 11.2 µM [inhibitor, partial curve, poor fit]
Cc1c(C(=O)Nc2cccc(C(F)(F)F)c2)oc2ccc(S(=O)(=O)N3CCC4(CC3)OCCO4)cc12	inactive
CCc1noc(C)c1C(=O)Nc1nc(-c2ccc(OC)c(OC)c2)cs1	inconclusive: 35.5 µM [inhibitor, single point]
CN(C)C=Nc1ccc2nn(-c3ccccc3)nc2c1	inconclusive: 3.16 µM [activator, single point]
O=C(c1ccccc1-c1nc(-c2ccccc2)no1)N1CCCC1	inactive
CC1C(OC(=O)CCC(=O)NC(C)(C)CO)O[C@H]2OC3(C)CC[C@H]4[C@H](C)CCC1C24OO3 (stereo partly drawn)	inconclusive: 0.631 µM [inhibitor, full curve, poor fit]
Cc1ccc(C(=O)Nc2ccc3c(c2)nc(CCNC(=O)c2ccco2)n3C)cc1	inconclusive: 1.26 µM [activator, full curve, poor fit]
O=C(CSCc1ccc(F)cc1)N1CCc2c([nH]c3ccccc23)C1c1ccc(F)cc1 (stereo not drawn)	inconclusive: 22.4 µM [inhibitor, single point]
O=C(CCn1c(=O)c2cccn2c2cccnc21)Nc1ccccc1Br	inactive
CC1C(=O)N2CCCc3cc(NC(=O)C(=O)NCCc4c[nH]c5ccccc45)cc1c32 (stereo not drawn)	inconclusive: 7.94 µM [inhibitor, partial curve, poor fit]
O=C(CSc1nnc(-c2ccc(F)cc2)o1)Nc1ccc(S(=O)(=O)N2CCCC2)cc1	inactive
COc1ccc(-c2cc3c(=O)n(CC(=O)Nc4ccc(Br)c(C)c4)ccn3n2)cc1OC	inconclusive: 2 µM [activator, partial curve, poor fit]

Individual results from the results shown:
For Potency, O=C(c1ccccc1-c1nc(-c2ccccc2)no1)N1CCCC1 is entered as inactive
For Potency, CCOC(=O)N1CCN(S(=O)(=O)c2ccc(C(=O)NNc3nc4c(C)cccc4s3)cc2)CC1 is entered as inconclusive: 32.6 µM [inhibitor, single point]
For Potency, O=C(CCn1c(=O)c2cccn2c2cccnc21)Nc1ccccc1Br is entered as inactive
